These are yes or no findings as the source states them, for the method shown. For some assays here: Binding can be weak; no strength is given.

Common to all, as to assay: far-Western, overlay or dot blot; 1 ug of each purified protein (PilQ proteins, PilN, PilO, PilP, PilF, PilT, ComP, ComL, purified pili, BSA) resolved by SDS-PAGE, blotted on nitrocellulose, renatured overnight at 4°C in renaturing buffer (0.25% gelatin, 0.5% BSA, 0.2% Triton X-100, 10 mM Tris-HCl, 5 mM β-mercaptoethanol, 100 mM NaCl, pH 7.5); membrane incubated 3 h with 1 ug purified full-length or partial PilG in 10 ml renaturing buffer; bound PilG detected with rabbit antiserum; both purified

In experiment [1] the target is T1, PilQ_(25-354) (N. meningitidis) (UniProt Q70M91).
T1 sequence: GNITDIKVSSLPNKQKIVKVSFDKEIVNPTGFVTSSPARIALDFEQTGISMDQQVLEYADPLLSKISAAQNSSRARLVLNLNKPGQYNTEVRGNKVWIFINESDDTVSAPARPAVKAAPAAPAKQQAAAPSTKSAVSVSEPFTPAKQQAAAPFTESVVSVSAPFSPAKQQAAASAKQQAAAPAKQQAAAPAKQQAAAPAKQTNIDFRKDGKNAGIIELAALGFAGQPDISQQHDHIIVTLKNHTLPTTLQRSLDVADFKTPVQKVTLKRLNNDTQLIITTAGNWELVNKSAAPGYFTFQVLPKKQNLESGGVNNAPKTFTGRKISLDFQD

Experiment [2] deals with T2, PilQ_(350-761) (N. meningitidis) (UniProt Q70M91).
T2 sequence: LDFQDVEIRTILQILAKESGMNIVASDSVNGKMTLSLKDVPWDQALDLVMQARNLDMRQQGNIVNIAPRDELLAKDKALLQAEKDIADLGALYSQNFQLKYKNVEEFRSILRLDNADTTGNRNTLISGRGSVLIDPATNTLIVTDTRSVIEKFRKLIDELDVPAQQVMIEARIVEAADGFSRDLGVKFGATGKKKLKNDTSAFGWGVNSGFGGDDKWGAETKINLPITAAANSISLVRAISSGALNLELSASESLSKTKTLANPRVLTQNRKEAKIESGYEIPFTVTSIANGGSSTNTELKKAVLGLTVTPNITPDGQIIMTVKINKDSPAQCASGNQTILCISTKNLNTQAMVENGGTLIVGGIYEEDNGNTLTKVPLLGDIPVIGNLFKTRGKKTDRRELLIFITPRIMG

Experiment [3] concerns the target T3, PilQ_(217-478) (N. meningitidis) (UniProt Q70M91).
T3 sequence: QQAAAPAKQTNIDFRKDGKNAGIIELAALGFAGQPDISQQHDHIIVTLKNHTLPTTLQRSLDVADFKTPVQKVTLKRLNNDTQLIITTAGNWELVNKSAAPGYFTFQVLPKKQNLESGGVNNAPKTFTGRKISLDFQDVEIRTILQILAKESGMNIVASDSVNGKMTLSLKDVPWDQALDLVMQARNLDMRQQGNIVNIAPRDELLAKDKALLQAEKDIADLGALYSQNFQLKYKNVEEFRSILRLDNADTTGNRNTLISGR

Another experiment concerns the target T4, PilT (N. meningitidis) (UniProt O85741).
T4 sequence: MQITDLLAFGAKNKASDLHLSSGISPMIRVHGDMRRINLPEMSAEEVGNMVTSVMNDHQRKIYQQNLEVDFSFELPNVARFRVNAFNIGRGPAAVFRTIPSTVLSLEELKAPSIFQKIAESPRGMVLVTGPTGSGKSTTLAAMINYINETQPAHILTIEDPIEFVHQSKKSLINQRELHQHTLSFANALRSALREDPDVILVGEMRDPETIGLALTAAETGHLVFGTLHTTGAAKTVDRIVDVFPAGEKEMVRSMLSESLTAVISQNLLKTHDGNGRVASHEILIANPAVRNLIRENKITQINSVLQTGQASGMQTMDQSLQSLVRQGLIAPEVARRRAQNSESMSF

As for “PilG full-length (PilG_(FL/1-410)) (N. meningitidis MC58)”, the binding entry in experiment [1] is “binds”; in experiment [2], “no binding (tested: 1 μg in 10 ml renaturing buffer)”; in experiment [3], “no binding (tested: 1 μg in 10 ml renaturing buffer)”; with PilT (N. meningitidis), “no binding (tested: 1 μg in 10 ml renaturing buffer)”.

For the substance “PilG_(1-178) (N. meningitidis MC58) (domain or fragment)”, the binding result in experiment [1] is recorded as “binds”; in experiment [2], “no binding (tested: 1 μg in 10 ml renaturing buffer)”; in experiment [3] it was “no binding (tested: 1 μg in 10 ml renaturing buffer)”; with PilT (N. meningitidis) it was “no binding (tested: 1 μg in 10 ml renaturing buffer)”.

Consider “PilG_(1-256) (N. meningitidis MC58) (domain or fragment)”, for which the binding result is recorded as “binds” in experiment [1], “no binding (tested: 1 μg in 10 ml renaturing buffer)” in experiment [2], “no binding (tested: 1 μg in 10 ml renaturing buffer)” in experiment [3] and “no binding (tested: 1 μg in 10 ml renaturing buffer)” in the experiment with PilT (N. meningitidis).

With “PilG_(166-410) (N. meningitidis MC58) (domain or fragment)”, the binding result (in experiment [1]; in experiment [2]; in experiment [3]; with PilT (N. meningitidis)) was “no binding (tested: 1 μg in 10 ml renaturing buffer)” each time.

Turning to “PilG_(257-410) (N. meningitidis MC58) (domain or fragment)”, the binding result (in experiment [1]; in experiment [2]; in experiment [3]; with PilT (N. meningitidis)) was “no binding (tested: 1 μg in 10 ml renaturing buffer)” throughout.

The values above are taken from publication PMC4527729, “The Inner Membrane Protein PilG Interacts with DNA and the Secretin PilQ in Transformation”.
